Test results: publication PMC11662670, “Selective recognition of RNA G-quadruplex in vitro and in cells by L-aptamer–D-oligonucleotide conjugate”

Experiments:
DHX36 (HeLa lysate) = target: T1, DHX36 (HeLa lysate) (UniProt Q9H2U1); assay: pull-down, immunoblot; conditions: Pull-down: same buffer without sucrose, 4 C, protein in an extract, label: 5' biotin
T1 sequence (looked up, limits assumed): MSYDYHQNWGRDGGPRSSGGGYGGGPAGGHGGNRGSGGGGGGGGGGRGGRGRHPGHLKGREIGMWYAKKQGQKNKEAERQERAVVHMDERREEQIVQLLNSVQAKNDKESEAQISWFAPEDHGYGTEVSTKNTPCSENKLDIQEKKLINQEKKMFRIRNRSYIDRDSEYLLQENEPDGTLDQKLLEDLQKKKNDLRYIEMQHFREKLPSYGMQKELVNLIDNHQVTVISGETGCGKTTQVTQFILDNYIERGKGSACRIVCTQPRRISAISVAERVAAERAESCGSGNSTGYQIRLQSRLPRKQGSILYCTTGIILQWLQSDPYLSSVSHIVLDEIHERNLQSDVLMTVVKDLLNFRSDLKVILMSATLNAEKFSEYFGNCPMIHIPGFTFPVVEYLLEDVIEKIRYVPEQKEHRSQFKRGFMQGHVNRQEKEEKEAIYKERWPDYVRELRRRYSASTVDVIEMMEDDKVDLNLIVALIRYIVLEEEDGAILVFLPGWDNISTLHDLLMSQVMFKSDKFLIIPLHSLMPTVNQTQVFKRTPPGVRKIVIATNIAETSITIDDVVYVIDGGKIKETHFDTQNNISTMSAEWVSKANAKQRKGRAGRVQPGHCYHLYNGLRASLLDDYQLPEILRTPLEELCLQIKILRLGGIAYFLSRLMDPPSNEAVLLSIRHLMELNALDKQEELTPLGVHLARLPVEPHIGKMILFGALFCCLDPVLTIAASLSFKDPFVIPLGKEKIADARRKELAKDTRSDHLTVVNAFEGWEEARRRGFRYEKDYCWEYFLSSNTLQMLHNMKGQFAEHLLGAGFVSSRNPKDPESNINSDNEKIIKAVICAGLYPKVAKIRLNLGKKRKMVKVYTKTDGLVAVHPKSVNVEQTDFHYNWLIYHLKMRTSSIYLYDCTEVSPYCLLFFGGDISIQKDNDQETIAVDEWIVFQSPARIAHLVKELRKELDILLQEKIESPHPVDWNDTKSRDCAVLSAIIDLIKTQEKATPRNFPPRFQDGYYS

DHX36 = target: T2, DHX36 (UniProt Q9H2U1); assay: competition EMSA; conditions: 48 nM DHX36, 5 nM RNA, not dissociated by conjugate, L-aptamer or ASO; EMSA: 150 mM KCl, 1 mM MgCl2, 25 mM Tris-HCl pH 7.5, 8% sucrose, 30 min at 37 C; gel at 4 C; commercial protein; label: 5' FAM
T2 sequence (looked up, limits assumed): T1 sequence (looked up, limits assumed)

**Q.** Does “GGGGCGGGUGGGGAGGGGUGCUCUGCUGGUCUU [Biotin-wt APP rG4 region]” bind (DHX36 (HeLa lysate); reduced by 100 nM L-Apt.4-1c-ASO15nt(APP))?
**A.** Result: binds

**Q.** Does “GAAGCGAGUGAAGAGAAGUAAUAUACUAAUAUU [Biotin-mut APP rG4 region]” bind (DHX36 (HeLa lysate))?
**A.** Result: no binding

**Q.** Does “GGGAGGGCGGGGAGGGCGCGCGGCGAUCGGACACGA [FAM_TRF2 rG4 region]” bind (DHX36)?
**A.** Result: binds

The exact form of at least one protein or probe is not confirmed. For part of these data: Where cells or extracts were used, other partners may take part. For part of these data: No signal at the amounts used counts as a negative. Where a protein sequence is shown, tags need not be part of it. For part of these data: At least one verdict was read from the data and is not stated in words by the source.
